Assay results from PubChem BioAssay AID651768 (National Center for Advancing Translational Sciences (NCATS), 2012).
Out of some 360,000 compounds screened, about 1,700 (0.47%) were called active. The shares of active, inactive and inconclusive entries below differ from those in the screen. Calls come from the whole dose curve; as a rule, active = well fitted inhibition curve with a large enough effect; inconclusive = small, poorly fitted or top-dose-only effect; inactive = no such curve, though single readings can be large or run the other way. Where the call is inconclusive, the potency comes from a doubtful curve fit.

Amino acid sequences for entries named in this document (tags omitted).
UniProt Q14191, whole entry, looked up: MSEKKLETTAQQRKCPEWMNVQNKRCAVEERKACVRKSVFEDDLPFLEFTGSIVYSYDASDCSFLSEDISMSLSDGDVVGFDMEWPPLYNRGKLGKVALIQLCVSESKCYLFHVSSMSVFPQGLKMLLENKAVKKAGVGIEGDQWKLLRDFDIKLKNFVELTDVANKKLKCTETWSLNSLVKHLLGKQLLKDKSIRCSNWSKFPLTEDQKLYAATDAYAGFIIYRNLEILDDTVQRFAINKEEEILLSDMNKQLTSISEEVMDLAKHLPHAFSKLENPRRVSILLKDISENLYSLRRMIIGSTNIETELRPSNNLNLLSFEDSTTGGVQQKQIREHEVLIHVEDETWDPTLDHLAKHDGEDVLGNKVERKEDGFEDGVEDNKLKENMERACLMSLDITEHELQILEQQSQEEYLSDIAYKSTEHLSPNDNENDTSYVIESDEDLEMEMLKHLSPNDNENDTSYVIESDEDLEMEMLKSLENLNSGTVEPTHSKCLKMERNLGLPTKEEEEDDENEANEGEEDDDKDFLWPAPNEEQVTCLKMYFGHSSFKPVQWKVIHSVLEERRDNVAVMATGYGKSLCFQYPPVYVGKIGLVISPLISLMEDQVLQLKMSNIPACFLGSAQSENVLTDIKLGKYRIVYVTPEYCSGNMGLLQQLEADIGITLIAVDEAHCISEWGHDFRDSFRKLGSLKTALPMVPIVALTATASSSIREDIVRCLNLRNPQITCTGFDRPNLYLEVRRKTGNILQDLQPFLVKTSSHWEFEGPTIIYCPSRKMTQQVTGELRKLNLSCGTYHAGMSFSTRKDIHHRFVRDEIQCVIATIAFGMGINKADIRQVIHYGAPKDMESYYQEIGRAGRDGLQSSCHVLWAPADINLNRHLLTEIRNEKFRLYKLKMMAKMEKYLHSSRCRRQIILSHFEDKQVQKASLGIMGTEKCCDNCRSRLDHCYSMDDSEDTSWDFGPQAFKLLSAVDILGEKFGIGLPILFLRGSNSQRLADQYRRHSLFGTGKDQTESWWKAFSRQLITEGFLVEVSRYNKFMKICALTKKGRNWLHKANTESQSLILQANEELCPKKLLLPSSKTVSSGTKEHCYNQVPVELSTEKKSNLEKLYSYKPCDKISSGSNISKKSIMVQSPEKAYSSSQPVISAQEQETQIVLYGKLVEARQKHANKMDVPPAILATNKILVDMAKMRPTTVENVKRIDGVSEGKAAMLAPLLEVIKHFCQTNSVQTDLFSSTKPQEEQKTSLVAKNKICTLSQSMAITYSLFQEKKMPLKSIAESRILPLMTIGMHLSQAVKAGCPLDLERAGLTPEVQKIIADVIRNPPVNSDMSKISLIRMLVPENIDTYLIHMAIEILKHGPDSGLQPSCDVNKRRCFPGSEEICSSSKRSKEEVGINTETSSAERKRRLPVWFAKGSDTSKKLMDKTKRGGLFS

molecular target: Bifunctional 3'-5' exonuclease/ATP-dependent helicase WRN (Homo sapiens) (UniProt Q14191); assay: qHTS for Inhibitors of WRN Helicase; conditions: WRN helicase unwinding, fluorescent forked duplex, kinetic; activity change, negative = inhibition: at 114 µM (top of the series) unless noted; note: nearly all actives have a fitted effect of over 55% in size
Procedure, shortened: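 Kinetic fluorescence helicase assay: unwinding of a quenched forked DNA duplex (100 nM final) with 2 mM ATP final raises red fluorescence (525/598 nm). Compounds sat 15 min at room temperature with 20 nM WRN beforehand.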
% is set by controls: 0 for no effect and ±100 for the full control effect; potency is the fitted concentration of half-maximal effect.

SMILES	Potency	activity change, negative = inhibition
O=[N+]([O-])c1cc2no[n+]([O-])c2cc1N1CCCCC1	inconclusive: 20 µM [inhibitor, full curve]	
Cc1cc(C)cc(NC(=S)N2CCC(NC(=O)c3ccc(F)cc3)CC2)c1	inconclusive: 28.2 µM [inhibitor, single point]	
CCCCCCNC(=O)O[C@H]1Cn2c(=O)ccc(=O)n2[C@@H]2CN(S(=O)(=O)c3ccc(C)cc3)C[C@]12O	inconclusive: 56.2 µM [inhibitor, partial curve]	
Cc1c(CCOC(=O)c2ccc(N3CCOCC3)c([N+](=O)[O-])c2)sc[n+]1CC#N		inactive: -9.45%
CNC(=S)N1N=C(c2ccc(OC)cc2)CC1c1ccccc1Cl (centres undefined)	inconclusive: 3.55 µM [inhibitor, full curve, poor fit]	
N#CSCC(=O)c1cccc2ccccc12	inconclusive: 44.7 µM [inhibitor, partial curve]	
O=C(O)CSc1c(Cl)c(=O)oc2ccc(Cl)cc12	inconclusive: 56.2 µM [inhibitor, partial curve]	
COc1ccc(/C=C2\COc3ccccc3C2=O)cc1OC		inactive: -11.9% [at 11.6 µM]
CC(=O)Nc1ccc(C=CC=Cc2cccc([N+](=O)[O-])c2)cc1	inconclusive: 25.1 µM [inhibitor, partial curve]	
CC1C/C(=C/c2ccccn2)C(=O)/C(=C/c2ccccn2)C1 (centres undefined)	inconclusive: 17.8 µM [inhibitor, single point]	
CC1CCCC(C)N1C(=O)COC(=O)CN1C(=O)c2ccccc2C1=O (centres undefined)		inactive: 2.6%
C=CCc1c(C)[nH]c2c(OC)cccc2c1=S		inactive: -5.18%
COc1cc(/C=C/C(=O)c2ccc(C)c([N+](=O)[O-])c2)cc(OC)c1O	inconclusive: 79.4 µM [inhibitor, partial curve]	
O=C(O)c1cccc(-n2cccc2/C=C2\NC(=O)N(Cc3ccc(F)cc3)C2=O)c1	inconclusive: 79.4 µM [inhibitor, partial curve]	
OCCN(CC#CC(O)(c1ccccc1)c1cccc(F)c1)CCO (centres undefined)	inconclusive: 3.98 µM [inhibitor, full curve, poor fit]	
O=C(NNC(=O)C1C2C=CC(C2)C1C(=O)O)c1cc(Cl)ccc1O (centres undefined)		inactive: -2.32%
N#CC1=C(N)SC(N)=C(C#N)C1c1cccc(Oc2ccccc2)c1	inconclusive: 63.1 µM [inhibitor, partial curve]	
O=C(O)CCN1C(=O)/C(=C\c2cccc(Oc3ccccc3)c2)SC1=S	inconclusive: 70.8 µM [inhibitor, partial curve]	
O=c1[nH]c(=S)[nH]c2scc(-c3ccc(Br)cc3)c12	inconclusive: 17.8 µM [inhibitor, full curve, poor fit]	
N#C/C(=C\N1CCOCC1)S(=O)(=O)c1ccc(Cl)cc1	inconclusive: 3.55 µM [inhibitor, full curve, poor fit]	
Cc1oc(=O)c(NC(=O)c2ccccc2)cc1C(=O)c1ccccc1		inactive: -32.7%
Cc1ccc(-n2nc3ccc(NC(=O)/C=C/c4ccco4)cc3n2)cc1C	inconclusive: 44.7 µM [inhibitor, partial curve]	
CN(C)CCNC(=O)c1cccc(-c2cnc3c(NC=O)cc(-c4ccc(F)cc4)cn23)c1	inconclusive: 31.6 µM [inhibitor, single point]	

SMILES	Potency	activity change, negative = inhibition
Cc1ccc(C)c(OCC(=O)N2CCc3ccccc3C2)c1		inactive: -7.12%
N#C/C(=C\c1cccs1)C(=O)NCc1ccccc1	inconclusive: 89.1 µM [inhibitor, single point]	
O=C1NC(c2cccs2)Nc2ccccc21 (centres undefined)	inconclusive: 79.4 µM [inhibitor, single point]	
Cc1ccc(NC2c3ncccc3C(=O)N2Cc2cccs2)cc1 (centres undefined)	inconclusive: 50.1 µM [inhibitor, partial curve]	
COc1ccc(C(=O)CC(Nc2ccc([N+](=O)[O-])cc2)c2ccc(OC)cc2)cc1 (centres undefined)		inactive: -11.2%
Cc1ccc([N+](=O)[O-])cc1-c1ccc(/C=C(\C#N)c2[nH]nc(N)c2C#N)o1	inconclusive: 50.1 µM [inhibitor, partial curve]	
Cc1n[nH]c(=O)nc1N/N=C/c1ccc(O)c([N+](=O)[O-])c1	inconclusive: 89.1 µM [inhibitor, single point]	
Cc1ccc(-n2c3nc(=O)[nH]c(=O)c-3cc3cc([N+](=O)[O-])ccc32)cc1C	inconclusive: 79.4 µM [inhibitor, single point]	
O=[N+]([O-])c1ccc2[nH]c(O)c(N=NC(=S)Nc3cccnc3)c2c1	inconclusive: 56.2 µM [inhibitor, partial curve]	
Cc1cccc(/C=N/Nc2cc(N3CCOCC3)nc(N3CCOCC3)n2)c1	inconclusive: 22.4 µM [inhibitor, single point]	
Cc1cccc(-c2cc(NC=O)c3ncc(-c4cccc(C(=O)N(C)C)c4)n3c2)c1	inconclusive: 100 µM [inhibitor, single point]	
O=C(CSc1ncnc2nc[nH]c12)Nc1nnc(SCc2ccc(Cl)c(Cl)c2)s1	inconclusive: 56.2 µM [inhibitor, partial curve]	
NNc1nc2sc3c(c2c(=O)[nH]1)CCc1ccccc1-3	inconclusive: 63.1 µM [inhibitor, partial curve, poor fit]	
O=C(O)c1ccc(CSCc2ccccc2Cl)o1		inactive: 2.59%
C=CCn1c(SCC(=O)NC(=O)NCc2ccco2)nc2sc(CC)cc2c1=O		inactive: -20.1% [at 11.6 µM]
CCN1/C(=C2/OC(=S)N(C)C2=O)Sc2ccccc21	inconclusive: 31.6 µM [inhibitor, full curve]	
O=[N+]([O-])c1ccc(/C=N/n2c(CO)nc3ccccc32)s1	inconclusive: 63.1 µM [inhibitor, partial curve]	
CCCCC1C(=O)CC[C@H]2[C@@H]1CC(=O)[C@@H]2C/C=C\CCCC(=O)O (some centres undefined)	inconclusive: 50.1 µM [inhibitor, partial curve]	
CC(=O)N1CCc2cc(S(=O)(=O)NC(C(=O)NC3CCCc4ccccc43)C(C)C)ccc21 (centres undefined)		inactive: -14.7%
O=C(Nc1ccccc1C(=O)Nc1ccccn1)c1ccc([N+](=O)[O-])cc1		inactive: -18%
Cc1cc(C)c(S(=O)(=O)Nc2cc(SCC(=O)O)c(O)c3ccccc23)cc1C	active: 22.4 µM	
C=CCN(C(=O)Cc1cccs1)c1nc(-c2ccc(S(C)(=O)=O)cc2)cs1		inactive: -0.0233% [at 11.6 µM]
O=C1C=CC2(O[C@H](c3ccccc3)[C@@H](c3ccccc3)O2)[C@H](Sc2ccccc2O)C1	active: 11.2 µM	

SMILES	Potency	activity change, negative = inhibition
CC(=O)c1nc(N2C(=O)CC(Cc3cc(C)cc(C)c3)C2=O)sc1C (centres undefined)	inconclusive: 44.7 µM [inhibitor, partial curve]	
Cc1ccc2nc(/C(C#N)=C/c3ccc(O)c(O)c3)[nH]c2c1	active: 44.7 µM	
COC(=O)c1ccc(COc2ccc(/C=C/C(=O)c3ccc(OC)c(CSCC(=O)O)c3)cc2OC)cc1	active: 44.7 µM	
CN1CCN(C(=S)NC(=O)c2ccc(Br)cc2)CC1		inactive: 2.74%
CC1(c2ccc(OC(F)F)cc2)NC(=O)N(/N=C/c2c(O)ccc3ccccc23)C1=O (centres undefined)	inconclusive: 22.4 µM [inhibitor, single point]	
O=C1C=CC(=O)c2c(O)c(N3CCN(CCO)CC3)c(Cl)c(O)c21	active: 31.6 µM	
Cc1cccc(C)c1NC(=O)CNC(=O)CCC(=O)N1CCOCC1		inactive: 7.78%
Nc1c(C(=O)O)cnc2c(-c3ccc(Cl)cc3)cnn12	inconclusive: 31.6 µM [inhibitor, single point]	
CCOC(=O)Cc1cc(=O)n(-c2nc3ccccc3s2)[nH]1		inactive: -28.7% [at 57.1 µM]
C/C(=C1/SC(=S)N(CCC(=O)O)C1=O)c1ccc(O)cc1	inconclusive: 79.4 µM [inhibitor, partial curve]	
COc1ccc(NC(=O)/C(C#N)=C\c2ccc(Br)o2)cc1	inconclusive: 79.4 µM [inhibitor, partial curve]	
COc1cc(/C=N/NC(=O)c2cncc(Br)c2)cc([N+](=O)[O-])c1O		inactive: -10.2%
Cc1occc1C(=O)NCc1ccc(C(=O)O)o1		inactive: -15.7% [at 57.1 µM]
CCN(CC)c1ccc2oc(=O)c(C)nc2c1	inconclusive: 56.2 µM [inhibitor, partial curve, poor fit]	
O=C1NC(=Nc2cccnc2)S/C1=C\c1cccc(F)c1	inconclusive: 25.1 µM [inhibitor, full curve, poor fit]	
COc1ccc(-c2coc3c(CN4CCOCC4)c(O)ccc3c2=O)cc1		inactive: 3.7%
O=C(O)CCc1ccc(-c2cccs2)o1	inconclusive: 56.2 µM [inhibitor, partial curve]	
Cc1ccc(NC(=O)CCS(=O)(=O)c2ccccc2)cc1S(=O)(=O)N1CCCCCC1		inactive: -9.78%
Cc1[nH]n(-c2ccccc2)c(=O)c1C(C[N+](=O)[O-])c1ccc(F)cc1 (centres undefined)	inconclusive: 56.2 µM [inhibitor, partial curve]	
O=C(/C=C/c1cccs1)NCc1cccnc1		inactive: 1.39%
CCN(CC(=O)Nc1ccccc1OC)CC(=O)Nc1ccccc1-c1ccccc1	inconclusive: 28.2 µM [inhibitor, full curve]	
O=C(Nc1cccc(-c2cnc3ccccc3n2)c1)c1cccc(NC(=O)c2ccco2)c1	inconclusive: 79.4 µM [inhibitor, partial curve]	
O=C(COC(=O)/C=C/c1ccc(F)cc1)Nc1ccc(S(=O)(=O)N2CCOCC2)cc1	inconclusive: 25.1 µM [inhibitor, single point]	

An excerpt from above in order of formula weight, rising:
SMILES	Potency	activity change, negative = inhibition
COc1cc(/C=C/C(=O)c2ccc(C)c([N+](=O)[O-])c2)cc(OC)c1O	inconclusive: 79.4 µM [inhibitor, partial curve]	
O=C(NNC(=O)C1C2C=CC(C2)C1C(=O)O)c1cc(Cl)ccc1O (centres undefined)		inactive: -2.32%
CC1CCCC(C)N1C(=O)COC(=O)CN1C(=O)c2ccccc2C1=O (centres undefined)		inactive: 2.6%
Cc1c(CCOC(=O)c2ccc(N3CCOCC3)c([N+](=O)[O-])c2)sc[n+]1CC#N		inactive: -9.45%
